# Results published in PubChem BioAssay AID662 (National Center for Advancing Translational Sciences (NCATS), 2007).
# The list shows a part of the results. These are further read-outs of the screen, such as a control signal, another cell line or another target. No call is given for them. Compounds called inactive in the main read-out are mostly missing here. Potencies come from curve fits of mixed quality, noted in brackets.
# Experiment: Cell signaling CRE-BLA (Fsk stim)
# Settings: CHO CRE-bla reporter (cAMP response element driving beta-lactamase), forskolin EC10, beta-lactamase ratio; measured here: 460 nm blue channel
# How it was run: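 CRE-bla CHO cells stimulated with EC10 NKH 477 (water-soluble forskolin) and compound titrations, 3 h at 37C; beta-lactamase read with CCF4 after 2 h at room temperature. Activity from 460/530 nm emission ratio, AC50 values for positive or negative modulation.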
row,Compound,AC50
1,Cc1cc(C)nc(-n2nc(C)c(Sc3ccc(F)cc3)c2N)n1,"2 µM [rising, partial curve]"
2,CCOC(=O)C1CCCN(C(=O)Cn2sc3nc(C)cc(C)c3c2=O)C1 (configuration not stated),"25.1 µM [falling, single point]"
3,COc1cc2c(cc1OC)C(C)N(C(=O)CCN1C(=O)C3C4C=CC(C4)C3C1=O)CC2 (configuration not stated),"0.01 µM [falling, full curve, poor fit]"
4,COc1ccc(S(=O)(=O)N(CCCN2CCOCC2)Cc2ccc(OC)c(OC)c2)cc1,"2.51 µM [rising, single point]"
5,O=c1cc(CSc2nc3cc(Cl)ccc3o2)nc2sccn12,"10 µM [rising, partial curve]"
6,Clc1ccc2nc(CSc3nnc(-c4c[nH]c5ccccc45)o3)cn2c1,"1.58 µM [rising, full curve, poor fit]"
7,CCN(C(=O)CCc1nc(-c2ccc(OC)cc2)no1)c1cc(OC)ccc1OC,"25.1 µM [rising, partial curve]"
8,O=C(COc1ccc(Cl)cc1Cl)Nc1ccccn1,"1.58 µM [rising, partial curve, poor fit]"
9,Cn1cc(-c2nc3cncnc3n(CCN)c2=O)c2ccccc21,"10 µM [rising, partial curve]"
10,CC1(C)C(=O)Nc2ccccc2N1C(=O)COc1ncnc2ccccc12,"5.01 µM [falling, single point]"
11,CCc1cc2c(-c3ccccc3)cc(=O)oc2c(CN2CCOCC2)c1O,"1.26 µM [rising, full curve]"
12,COc1ccc(Cn2nnnc2C(c2cccs2)N2CCN(c3ccccc3)CC2)cc1 (configuration not stated),"25.1 µM [falling, single point]"
13,CCCn1c(NC(=O)c2ccc(C)cc2)nc2ccccc21,"12.6 µM [falling, single point]"
14,O=C(Cn1c(=O)n(-c2ccccc2)c(=O)c2sccc21)N1CCCC1,"0.2 µM [falling, full curve]"
15,CCOc1ccc(OCC)c(NC(=O)C2CCN(S(=O)(=O)c3cccc4nonc34)CC2)c1,"0.0251 µM [falling, full curve]"
16,COC(=O)C1=C(C)Nc2nnnn2C1c1cc(OC)ccc1OC (configuration not stated),"0.316 µM [rising, full curve]"
17,CN(CCNC(=O)c1ccc(N2CCCC2=O)cc1)CCc1ccccc1,"10 µM [falling, partial curve]"
18,CCn1c(=S)sc2c(=O)n(-c3ccccc3)c(SC)nc21,"10 µM [rising, partial curve]"
19,CCNC(=O)c1ccc2c(c1)S(=O)(=O)c1ccccc1C2=O,"10 µM [rising, partial curve]"
20,COc1ccccc1N(CC(=O)NCCSC(C)(C)C)S(C)(=O)=O,"0.00794 µM [falling, full curve, poor fit]"
21,CC1=Nc2ncnn2C(c2ccccc2)/C1=N\O (configuration not stated),"20 µM [falling, partial curve, poor fit]"
22,CC(C)(C)c1ccc([C@@H](O)CCCN2CCC(C(O)(c3ccccc3)c3ccccc3)CC2)cc1,"12.6 µM [falling, single point]"
23,CC(C)(C)NC(=O)CSc1ncnc2c1nnn2Cc1ccccc1Cl,"5.01 µM [falling, partial curve]"

row,Compound,AC50
1,CCCS(=O)(=O)NCCc1cc2c(OC)ccc(OC)c2[nH]c1=O,"2.51 µM [falling, single point]"
2,Cc1cc(C(=O)NCCCn2ccnc2)sc1-c1ccccc1,"0.00316 µM [falling, full curve, poor fit]"
3,COC(=O)c1ccc(C(NC(=O)OCc2ccccc2)/C(=C/[C@@H](C)C(=O)NCc2ccc(-c3ccccc3)cc2)c2cccnc2)cc1 (some centres not stated),"12.6 µM [falling, single point]"
4,CN1C(=O)C(O)(C2COC(C)(C)CC2=O)c2cc(Br)ccc21 (configuration not stated),"12.6 µM [rising, single point]"
5,COc1ccc(-c2ccc(=O)n(CC(=O)Nc3cccc(O)c3)n2)cc1OC,"12.6 µM [rising, partial curve]"
6,Cc1nnc2c(-c3ccccc3)nc3ccccc3n12,"5.01 µM [rising, partial curve]"
7,CN1CCN(c2ncnc3ccc(-c4ccc(C(=O)N(C)C)cc4)cc23)CC1,"3.16 µM [rising, full curve, poor fit]"
8,Nc1nsc2ccccc12,"1.58 µM [falling, full curve]"
9,Cc1nc2nc(SCC(=O)NCc3ccco3)nn2c(C)c1Cc1c(F)cccc1Cl,"20 µM [rising, single point]"
10,COc1cc2nc(SCC(=O)NCCc3ccccc3)n(Cc3ccco3)c(=O)c2cc1OC,"10 µM [rising, partial curve]"
11,COc1cccc(C2C3=C(CCCC3=O)Nc3nc4ccccc4n32)c1OC (configuration not stated),"0.02 µM [rising, full curve, poor fit]"
12,CCOC(=O)C1CCCN(C(=O)c2ccccc2Oc2ccccc2)C1 (configuration not stated),"1 µM [falling, partial curve, poor fit]"
13,Cc1ccc(Nc2nc3nonc3[nH]c2=O)cc1,"10 µM [falling, partial curve]"
14,O=S1(=O)N=C2CCCN2C(c2ccc(F)cc2)N1 (configuration not stated),"12.6 µM [falling, partial curve]"
15,Cc1ccc(-c2cc(-c3ccccc3Cl)c(C#N)c(N)n2)o1,"20 µM [rising, single point]"
16,COc1ccccc1CNC(=O)CN(c1ccc(C)cc1)S(=O)(=O)c1c(C)nn(C)c1C,"0.00398 µM [falling, full curve, poor fit]"
17,CC1CC1C(=O)OCc1cc(=O)n2cc(Br)ccc2n1 (configuration not stated),"3.98 µM [falling, single point]"
18,c1cn2cc(-c3ccc4c(c3)OCO4)nc2s1,"0.126 µM [rising, full curve]"
19,C=CCn1c(CC(=O)OC)csc1=Nc1ccc(C(C)=O)cc1,"7.94 µM [rising, partial curve]"
20,N#CCCn1c(=O)c(-c2ccc(F)cc2)nc2cnc(Oc3cccc(Cl)c3)nc21,"12.6 µM [rising, partial curve]"
21,CN1CCc2cc3c(c4c2C1CC41CCC(=NO)CC1)OCO3 (configuration not stated),"31.6 µM [falling, single point]"
22,COc1ccc(N(C)C(=O)CCC(=O)Nc2ccc3nc(N4CCOCC4)cc(C)c3c2)c(OC)c1,"10 µM [rising, single point]"
23,COc1cc(-c2nn3c(-c4cccc(C)c4)nnc3s2)cc(OC)c1OC,"1.58 µM [rising, full curve]"

# A section from further up, for reference:
row,Compound,AC50
1,CCCS(=O)(=O)NCCc1cc2c(OC)ccc(OC)c2[nH]c1=O,"2.51 µM [falling, single point]"
2,Cc1cc(C(=O)NCCCn2ccnc2)sc1-c1ccccc1,"0.00316 µM [falling, full curve, poor fit]"
3,COC(=O)c1ccc(C(NC(=O)OCc2ccccc2)/C(=C/[C@@H](C)C(=O)NCc2ccc(-c3ccccc3)cc2)c2cccnc2)cc1 (some centres not stated),"12.6 µM [falling, single point]"
4,CN1C(=O)C(O)(C2COC(C)(C)CC2=O)c2cc(Br)ccc21 (configuration not stated),"12.6 µM [rising, single point]"
5,COc1ccc(-c2ccc(=O)n(CC(=O)Nc3cccc(O)c3)n2)cc1OC,"12.6 µM [rising, partial curve]"
6,Cc1nnc2c(-c3ccccc3)nc3ccccc3n12,"5.01 µM [rising, partial curve]"

# Going on with the list.

row,Compound,AC50
1,CCN(CC)S(=O)(=O)c1ccc2[nH]cc(C(=O)NCCC3=CCCCC3)c(=O)c2c1,"25.1 µM [falling, single point]"
2,c1ccc(-c2ccccc2-c2nc(-c3cccnc3)no2)cc1,"10 µM [rising, partial curve]"
3,CN(C1CCCCC1)S(=O)(=O)c1ccc(NC(=O)c2ccco2)cc1,"6.31 µM [rising, partial curve]"
4,Cc1cccc(Nc2nc(N)nc(CN3CCN(c4ccccc4)CC3)n2)c1,"12.6 µM [falling, single point]"
5,Cc1nc2c(cnn2-c2ccc(Cl)cc2)c(=O)n1-c1ccc2c(c1)OCCO2,"3.98 µM [rising, single point]"
6,O=C(CN1CCOc2ccccc21)N1CCN(c2cccc(Cl)c2)CC1,"15.8 µM [falling, single point]"
7,N#CCSc1nc2ccc(N3CCCCC3)cc2c(=O)n1Cc1ccccc1,"6.31 µM [rising, partial curve]"
8,COc1ccc(CC(=O)Nc2cc(C)c3c(=O)oc4ccccc4c3n2)cc1,"12.6 µM [rising, partial curve]"
9,O=C(Nc1ccccc1)N1CCN(c2nc3ccccc3s2)CC1,"10 µM [rising, partial curve]"
10,CCC(=O)N1CCc2cc(S(=O)(=O)NCCC(=O)N3CCN(c4ccccn4)CC3)ccc21,"0.0251 µM [falling, full curve, poor fit]"
11,COc1ccc(-c2nc(NC(=O)c3cc(C(C)(C)C)nn3C)sc2C)cc1,"25.1 µM [falling, single point]"
12,CCOC(=O)c1c(NC(=O)c2nc3n(n2)C(C(F)F)CC(C)N3)sc2c1CCCC2 (configuration not stated),"3.98 µM [rising, full curve]"
13,Cc1ccc2c(c1)c1ncnc(N3CCC4(CC3)OCCO4)c1n2C,"15.8 µM [rising, single point]"
14,CN1CCN(c2nc(-c3ccccc3C(F)(F)F)nc3ccccc23)CC1,"6.31 µM [rising, partial curve]"
15,COC(=O)CSc1nc2cc(OC)ccc2cc1C#N,"12.6 µM [rising, single point]"
16,COC(=O)CCSc1nccn1Cc1ccccc1,"6.31 µM [falling, partial curve]"
17,Cc1ccc(-c2nn3c(C)nnc3s2)cc1NC(=O)C(C)C,"10 µM [rising, partial curve]"
18,S=C(S)O[C@@H]1C[C@@H]2C[C@H]1[C@@H]1CCC[C@H]21,"31.6 µM [falling, partial curve, poor fit]"
19,COc1ccc(-c2nnc(SCC(=O)NC3CCCCC3)o2)cc1OC,"10 µM [rising, partial curve]"
20,Cc1c(C(=O)NCc2ccc3c(c2)OCO3)oc2ccc(S(=O)(=O)N3CCC(C)CC3)cc12,"10 µM [falling, partial curve]"
21,COc1ccc(-c2noc(-c3cc(C)cc(C)c3)n2)cc1OC,"2.51 µM [rising, full curve]"
